At least one structure is not confirmed: it was looked up by name or label, or the drawing left a doubt.
System: heat shock proteins Hsp27, Hsp70 and Hsp90
Experiment: Western blot analyses of heat shock proteins in MCF-7 cell lysates
Format: cell-based, human
Conditions: MCF-7 cells, 24 h; GDA 500 nM positive control
Experimental: MCF-7 cells were cultured as described above and treated with various concentrations of drug, Geldanamycin (GDA or G) in DMSO (1% DMSO final concentration), or vehicle (DMSO) for 24 hr. Cells were harvested in cold PBS and lysed in RIPA lysis buffer containing 1 mM PMSF, 2 mM sodium orthovanadate, and protease inhibitors on ice for 1 hr. Lysates were clarified at 14000 g for 10 min at 4° C. Protein concentrations were determined using the Pierce BCA protein assay kit per the manufacturer's instructions. Equal amounts of protein (15 μg) were electrophoresed under reducing conditions, transferred to a PVDF membrane, and immunoblotted with the corresponding specific antibodies. Membranes were incubated with an appropriate horseradish peroxidase-labeled secondary antibody, developed with a chemiluminescent substrate, and visualized.

COC1=C2C[C@@H](C)C[C@H](OC)[C@H](O)[C@@H](C)/C=C(\C)[C@H](OC(N)=O)[C@@H](OC)/C=C\C=C(/C)C(=O)NC(=CC1=O)C2=O [GDA, Geldanamycin, reference compound]
Hsp90 levels (Western blot): induced Hsp90 upregulation

— patent publication US9994556B2, “Triazole modified coumarin and biphenyl amide-based HSP90 inhibitors” (THE UNIVERSITY OF KANSAS, priority 2014, dated 2018)
